Data from PMC8191290, “Substrate specificities and reaction kinetics of the yeast oligosaccharyltransferase isoforms” (The Journal of Biological Chemistry, 2021).
No constants are given. Whether binding was seen depends on the method and setting. In cells and extracts the contact can be indirect. Some entries that bind do so weakly or less than the wild type. Where a sequence is shown, tags or fusion partners need not be part of it.

T1: Ost4p tagged C-terminally with the 1D4 epitope (S. cerevisiae) (UniProt Q99380)
T1 sequence: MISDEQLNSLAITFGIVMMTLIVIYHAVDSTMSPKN

B1: Swp1p (protein, UniProt Q02795 20-286)
chain: YVAQDVHVSFPSTAGKSRVMIGKVEPRIGIDETVPTTITVEDPNEVIQVNFAIESTNKPFQNTLLIGLPNKNLEMAFEPEIKDNGKLSMYKYRIDLAKLDAALLQEASRSPEPIKATLILASSTAKPKENLFREILQLNLNFDVDHSDSSLVDKFGIKPEIHHIFHAEPKRVAKPIAVIFVLIIFITILSLIVTWLNSCAAAFNNIPTGVTAVYFLGFIATIVGFEVIFARYYLGTSIFETLFSSLYLGAPGLLTSTKFLRSFGQTI
B2: Ost5p (protein, UniProt Q92316 1-86)
chain: MTYEQLYKEFHSSKSFQPFIHLDTQPKFAICGLIVTLAVLSSALFAVGSKSSYIKKLFFYTILSVIGSLFAGLTTVFASNSFGVYV
B3: Ost1p (protein, UniProt P41543 23-476)
chain: AQYEPPATWENVDYKRTIDVSNAYISETIEITIKNIASEPATEYFTAFESGIFSKVSFFSAYFTNEATFLNSQLLANSTTAPGDDGESEIRYGIIQFPNAISPQEEVSLVIKSFYNTVGIPYPEHVGMSEEQHLLWETNRLPLSAYDTKKASFTLIGSSSFEEYHPPNDESLLGKANGNSFEFGPWEDIPRFSSNETLAIVYSHNAPLNQVVNLRRDIWLSHWASTIQFEEYYELTNKAAKLSKGFSRLELMKQIQTQNMRQTHFVTVLDMLLPEGATDHYFTDLVGLVSTSHAERDHFFIRPRFPIFGGWNYNFTVGWTNKLSDFLHVSSGSDEKFVASIPILNGPPDTVYDNVELSVFLPEGAEIFDIDSPVPFTNVSIETQKSYFDLNKGHVKLTFSYRNLISQVANGQVLIKYDYPKSSFFKKPLSIACYIFTALMGVFVLKTLNMNVTN
modifications: N-glycans at N99 and N217 (fully and hypoglycosylated forms)
B4: Wbp1p (protein, UniProt P33767 21-430)
chain: TQTSRTLVLYDQSTEPLEEYSVYLKDLEQRNYKLEYLDINSTSTTVDLYDKEQRLFDNIIVFPTKGGKNLARQIPVKQLIKFFENEGNILCMSSPGAVPNTIRLFLNELGIYPSPKGHVIRDYFSPSSEELVVSSNHLLNKYVYNARKSEDFVFGESSAALLENREQIVPILNAPRTSFTESKGKCNSWTSGSQGFLVVGFQNLNNARLVWIGSSDFLKNKNQDSNQEFAKELLKWTFNEKSVIKSVHAVHSHADGTSYDEEPYKIKDKVIYSVGFSEWNGEEWLPHIADDIQFELRQVDPYYRLTLSPSGNDSETQYYTTGEFILPDRHGVFTFLTDYRKIGLSFTTDKDVKAIRHLANDEYPRSWEISNSWVYISAICGVIVAWIFFVVSFVTTSSVGKKLETFKKTN
modifications: N-glycans at N60 and N332 (fully and hypoglycosylated forms)
B5: Ost2p (protein, UniProt P46964 1-130)
chain: MAKAPKANTPKVTSTSSAVLTDFQETFKTSKRAYFAQIEKYPKLKLIDTFCFFLVLLGVIQCTFIILIRDNFPFNAFLAGFIICVGQFVLLMSLRLQLCNSFPGISKNRAFAEFIVASLILHFVCLHFIN
B6: Stt3p (protein, UniProt P39007 1-718)
chain: MGSDRSCVLSVFQTILKLVIFVAIFGAAISSRLFAVIKFESIIHEFDPWFNYRATKYLVNNSFYKFLNWFDDRTWYPLGRVTGGTLYPGLMTTSAFIWHALRNWLGLPIDIRNVCVLFAPLFSGVTAWATYEFTKEIKDASAGLLAAGFIAIVPGYISRSVAGSYDNEAIAITLLMVTFMFWIKAQKTGSIMHATCAALFYFYMVSAWGGYVFITNLIPLHVFLLILMGRYSSKLYSAYTTWYAIGTVASMQIPFVGFLPIRSNDHMAALGVFGLIQIVAFGDFVKGQISTAKFKVIMMVSLFLILVLGVVGLSALTYMGLIAPWTGRFYSLWDTNYAKIHIPIIASVSEHQPVSWPAFFFDTHFLIWLFPAGVFLLFLDLKDEHVFVIAYSVLCSYFAGVMVRLMLTLTPVICVSAAVALSKIFDIYLDFKTSDRKYAIKPAALLAKLIVSGSFIFYLYLFVFHSTWVTRTAYSSPSVVLPSQTPDGKLALIDDFREAYYWLRMNSDEDSKVAAWWDYGYQIGGMADRTTLVDNNTWNNTHIAIVGKAMASPEEKSYEILKEHDVDYVLVIFGGLIGFGGDDINKFLWMIRISEGIWPEEIKERDFYTAEGEYRVDARASETMRNSLLYKMSYKDFPQLFNGGQATDRVRQQMITPLDVPPLDYFDEVFTSENWMVRIYQLKKDDAQGRTLRDVGELTRSSTKTRRSIKRPELGLRV
modifications: N-glycan at N539 (most abundant Man8GlcNAc2)
B7: Ost6p (protein, UniProt Q03723 25-332)
chain: TASHNIDDILQLKDDTGVITVTADNYPLLSRGVPGYFNILYITMRGTNSNGMSCQLCHDFEKTYHAVADVIRSQAPQSLNLFFTVDVNEVPQLVKDLKLQNVPHLVVYPPAESNKQSQFEWKTSPFYQYSLVPENAENTLQFGDFLAKILNISITVPQAFNVQEFVYYFVACMVVFIFIKKVILPKVTNKWKLFSMILSLGILLPSITGYKFVEMNAIPFIARDAKNRIMYFSGGSGWQFGIEIFSVSLMYIVMSALSVLLIYVPKISCVSEKMRGLLSSFLACVLFYFFSYFISCYLIKNPGYPIVF
B8: Ost3p (protein, UniProt P48439 23-350)
chain: MSSNRLLKLANKSPKKIIPLKDSSFENILAPPHENAYIVALFTATAPEIGCSLCLELESEYDTIVASWFDDHPDAKSSNSDTSIFFTKVNLEDPSKTIPKAFQFFQLNNVPRLFIFKPNSPSILDHSVISISTDTGSERMKQIIQAIKQFSQVNDFSLHLPMDWTPIITSTIITFITVLLFKKQSKLMFSIISSRIIWATLSTFFIICMISAYMFNQIRNTQLAGVGPKGEVMYFLPNEFQHQFAIETQVMVLIYGTLAALVVVLVKGIQFLRSHLYPETKKAYFIDAILASFCALFIYVFFAALTTVFTIKSPAYPFPLLRLSAPFK

Molecular target: T1, Ost4p tagged C-terminally with the 1D4 epitope (S. cerevisiae)
Experiment: co-IP + SEC; DDM/CHS-solubilized yeast membranes bound to Rho-1D4 antibody-coupled sepharose beads through Ost4p-1D4, eluted with 1D4 peptide, then Superose 6 Increase size-exclusion chromatography (peak at ~14 ml, ~280 kDa), 4 °C, 50 mM Hepes pH 7.5, 150 mM NaCl; subunits seen by silver-stained SDS-PAGE; strains expressing only Ost3p or only Ost6p (also OST3 strain with alg6 deletion)

binding | Binder
binds | B1
binds | B2
binds | B3
binds | B4
binds | B5
binds | B6
binds | B7
binds | B8
